Measurements taken from the supplement of paper PMC10849652.
The other results are listed elsewhere or left out.

Chains of the proteins cited; added tags and fusions are not shown. Lines headed by an entry give the natural chain unless they say otherwise; changes in a name come on top.
UniProt Q2M2I8: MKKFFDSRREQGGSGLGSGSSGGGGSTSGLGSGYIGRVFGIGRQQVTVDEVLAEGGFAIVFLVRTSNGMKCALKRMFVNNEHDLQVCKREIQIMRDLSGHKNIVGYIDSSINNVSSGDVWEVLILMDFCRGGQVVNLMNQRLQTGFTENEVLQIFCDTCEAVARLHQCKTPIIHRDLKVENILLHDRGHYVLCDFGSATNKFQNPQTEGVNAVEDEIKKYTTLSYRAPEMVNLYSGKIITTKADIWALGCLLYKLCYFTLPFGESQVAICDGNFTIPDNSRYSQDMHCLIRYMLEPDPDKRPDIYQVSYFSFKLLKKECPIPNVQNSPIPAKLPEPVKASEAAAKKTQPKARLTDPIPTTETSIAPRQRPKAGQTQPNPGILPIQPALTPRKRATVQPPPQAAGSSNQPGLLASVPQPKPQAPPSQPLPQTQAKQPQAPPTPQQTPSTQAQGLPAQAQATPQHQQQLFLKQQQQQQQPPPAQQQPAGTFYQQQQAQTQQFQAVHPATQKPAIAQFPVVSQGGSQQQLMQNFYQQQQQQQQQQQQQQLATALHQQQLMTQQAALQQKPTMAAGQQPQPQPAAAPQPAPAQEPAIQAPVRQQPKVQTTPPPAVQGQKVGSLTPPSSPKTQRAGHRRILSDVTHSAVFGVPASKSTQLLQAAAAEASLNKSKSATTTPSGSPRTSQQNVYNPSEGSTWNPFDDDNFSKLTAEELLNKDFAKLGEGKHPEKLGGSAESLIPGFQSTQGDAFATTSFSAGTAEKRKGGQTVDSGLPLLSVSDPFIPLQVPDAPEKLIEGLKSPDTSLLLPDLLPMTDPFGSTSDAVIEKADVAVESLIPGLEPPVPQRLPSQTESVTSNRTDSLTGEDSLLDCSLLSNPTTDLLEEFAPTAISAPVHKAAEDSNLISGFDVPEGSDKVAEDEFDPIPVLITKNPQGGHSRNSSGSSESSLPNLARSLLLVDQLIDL
UniProt O15440: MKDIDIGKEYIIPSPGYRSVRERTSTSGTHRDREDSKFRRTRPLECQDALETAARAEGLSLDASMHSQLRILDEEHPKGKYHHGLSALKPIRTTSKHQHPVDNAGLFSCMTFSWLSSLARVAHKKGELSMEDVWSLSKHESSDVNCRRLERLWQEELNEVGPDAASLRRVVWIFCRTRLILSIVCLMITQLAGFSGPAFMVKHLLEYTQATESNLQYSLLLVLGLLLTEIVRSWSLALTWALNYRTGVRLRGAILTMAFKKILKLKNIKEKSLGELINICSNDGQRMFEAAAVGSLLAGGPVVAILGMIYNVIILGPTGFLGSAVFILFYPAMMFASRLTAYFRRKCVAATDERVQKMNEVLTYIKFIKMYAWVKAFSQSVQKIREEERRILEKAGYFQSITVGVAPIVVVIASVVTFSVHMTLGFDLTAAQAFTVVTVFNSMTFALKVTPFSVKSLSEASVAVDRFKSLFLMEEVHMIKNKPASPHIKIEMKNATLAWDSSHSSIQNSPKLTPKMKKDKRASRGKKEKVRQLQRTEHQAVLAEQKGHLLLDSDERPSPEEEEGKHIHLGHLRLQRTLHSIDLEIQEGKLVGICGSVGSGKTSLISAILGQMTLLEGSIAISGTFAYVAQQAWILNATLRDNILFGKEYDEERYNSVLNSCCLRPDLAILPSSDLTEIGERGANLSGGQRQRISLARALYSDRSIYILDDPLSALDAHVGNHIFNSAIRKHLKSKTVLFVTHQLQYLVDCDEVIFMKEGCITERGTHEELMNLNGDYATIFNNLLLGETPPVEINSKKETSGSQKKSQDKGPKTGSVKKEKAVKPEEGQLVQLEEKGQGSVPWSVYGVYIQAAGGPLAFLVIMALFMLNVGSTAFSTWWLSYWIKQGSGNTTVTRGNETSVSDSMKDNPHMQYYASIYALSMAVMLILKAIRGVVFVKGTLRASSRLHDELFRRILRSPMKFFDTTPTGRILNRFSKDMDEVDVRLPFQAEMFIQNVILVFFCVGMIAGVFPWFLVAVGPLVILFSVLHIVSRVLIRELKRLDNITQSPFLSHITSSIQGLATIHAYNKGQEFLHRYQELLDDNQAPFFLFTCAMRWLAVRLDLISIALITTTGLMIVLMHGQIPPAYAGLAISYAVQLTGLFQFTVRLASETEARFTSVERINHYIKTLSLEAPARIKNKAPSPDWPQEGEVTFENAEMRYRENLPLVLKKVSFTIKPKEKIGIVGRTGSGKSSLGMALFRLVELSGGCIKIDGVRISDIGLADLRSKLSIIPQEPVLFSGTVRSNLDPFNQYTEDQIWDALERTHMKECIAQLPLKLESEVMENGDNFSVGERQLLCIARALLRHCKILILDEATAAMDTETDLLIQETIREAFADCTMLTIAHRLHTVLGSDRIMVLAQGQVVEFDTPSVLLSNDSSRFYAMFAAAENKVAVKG
UniProt Q9Y312: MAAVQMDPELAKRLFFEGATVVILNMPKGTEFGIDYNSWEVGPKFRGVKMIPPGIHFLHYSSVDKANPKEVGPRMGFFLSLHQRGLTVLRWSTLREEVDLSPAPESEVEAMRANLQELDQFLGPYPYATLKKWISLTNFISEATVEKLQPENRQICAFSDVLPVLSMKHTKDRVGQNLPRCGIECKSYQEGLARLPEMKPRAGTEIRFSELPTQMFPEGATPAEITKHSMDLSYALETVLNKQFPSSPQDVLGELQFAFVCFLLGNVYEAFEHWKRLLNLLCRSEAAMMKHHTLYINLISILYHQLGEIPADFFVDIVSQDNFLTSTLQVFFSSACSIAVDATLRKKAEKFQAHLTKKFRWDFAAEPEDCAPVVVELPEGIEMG
UniProt Q9ULW3: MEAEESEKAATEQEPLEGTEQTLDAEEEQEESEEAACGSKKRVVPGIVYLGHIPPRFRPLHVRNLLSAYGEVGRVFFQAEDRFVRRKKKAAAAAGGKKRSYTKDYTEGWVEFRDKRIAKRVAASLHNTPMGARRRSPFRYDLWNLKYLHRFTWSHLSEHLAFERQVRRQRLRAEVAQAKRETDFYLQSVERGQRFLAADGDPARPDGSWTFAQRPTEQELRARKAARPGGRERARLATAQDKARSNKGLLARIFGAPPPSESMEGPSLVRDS
UniProt Q96P50: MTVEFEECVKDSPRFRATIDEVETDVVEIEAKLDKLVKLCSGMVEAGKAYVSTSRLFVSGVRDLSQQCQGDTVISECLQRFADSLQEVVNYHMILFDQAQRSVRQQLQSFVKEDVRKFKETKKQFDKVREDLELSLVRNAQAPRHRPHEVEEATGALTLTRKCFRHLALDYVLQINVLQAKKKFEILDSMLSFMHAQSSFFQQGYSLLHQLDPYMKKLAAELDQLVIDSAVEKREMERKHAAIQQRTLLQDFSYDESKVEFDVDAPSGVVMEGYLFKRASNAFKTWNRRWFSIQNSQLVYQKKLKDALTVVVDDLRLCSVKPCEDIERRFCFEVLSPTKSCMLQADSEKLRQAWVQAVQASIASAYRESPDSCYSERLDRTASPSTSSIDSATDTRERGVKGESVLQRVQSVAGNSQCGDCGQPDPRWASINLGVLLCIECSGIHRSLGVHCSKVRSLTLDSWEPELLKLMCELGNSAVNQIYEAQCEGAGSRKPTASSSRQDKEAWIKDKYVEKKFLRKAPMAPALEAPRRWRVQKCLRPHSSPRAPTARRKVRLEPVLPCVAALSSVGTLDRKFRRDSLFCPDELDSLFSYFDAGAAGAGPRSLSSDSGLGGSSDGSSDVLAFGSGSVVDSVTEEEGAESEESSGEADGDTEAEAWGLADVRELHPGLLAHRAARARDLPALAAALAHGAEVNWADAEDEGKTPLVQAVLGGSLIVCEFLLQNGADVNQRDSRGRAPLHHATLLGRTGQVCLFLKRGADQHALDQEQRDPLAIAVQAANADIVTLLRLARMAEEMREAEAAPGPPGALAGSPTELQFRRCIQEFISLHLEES
UniProt Q0P651: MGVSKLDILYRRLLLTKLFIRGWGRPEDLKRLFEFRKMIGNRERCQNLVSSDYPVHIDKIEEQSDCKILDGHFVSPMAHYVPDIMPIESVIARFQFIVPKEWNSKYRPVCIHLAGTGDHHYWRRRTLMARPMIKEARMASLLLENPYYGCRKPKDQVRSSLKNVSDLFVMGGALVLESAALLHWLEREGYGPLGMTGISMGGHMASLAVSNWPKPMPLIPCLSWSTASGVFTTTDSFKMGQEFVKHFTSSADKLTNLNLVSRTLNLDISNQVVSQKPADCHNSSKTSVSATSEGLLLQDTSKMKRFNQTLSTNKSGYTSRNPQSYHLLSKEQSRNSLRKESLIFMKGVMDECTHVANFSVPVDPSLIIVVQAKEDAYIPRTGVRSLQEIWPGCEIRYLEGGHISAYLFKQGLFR
UniProt Q9NUT2: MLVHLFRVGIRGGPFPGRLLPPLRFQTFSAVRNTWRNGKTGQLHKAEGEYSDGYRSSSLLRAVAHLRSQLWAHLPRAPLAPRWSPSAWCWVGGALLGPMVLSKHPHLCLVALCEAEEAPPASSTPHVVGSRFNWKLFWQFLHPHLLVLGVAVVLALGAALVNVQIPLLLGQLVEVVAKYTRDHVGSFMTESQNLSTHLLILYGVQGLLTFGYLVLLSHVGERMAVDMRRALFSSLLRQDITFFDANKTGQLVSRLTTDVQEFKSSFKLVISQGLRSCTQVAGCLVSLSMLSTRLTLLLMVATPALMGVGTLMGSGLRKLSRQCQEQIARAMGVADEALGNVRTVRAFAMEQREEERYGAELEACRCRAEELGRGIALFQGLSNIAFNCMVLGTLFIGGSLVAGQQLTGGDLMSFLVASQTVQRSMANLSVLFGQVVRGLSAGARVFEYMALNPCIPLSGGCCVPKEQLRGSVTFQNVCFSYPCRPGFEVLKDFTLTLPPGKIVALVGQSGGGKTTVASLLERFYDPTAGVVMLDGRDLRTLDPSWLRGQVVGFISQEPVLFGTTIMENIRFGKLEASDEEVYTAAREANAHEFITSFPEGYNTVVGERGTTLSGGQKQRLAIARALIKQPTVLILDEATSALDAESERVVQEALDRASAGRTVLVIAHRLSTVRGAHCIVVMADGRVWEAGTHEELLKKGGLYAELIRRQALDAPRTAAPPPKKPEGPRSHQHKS
UniProt Q9NUJ1: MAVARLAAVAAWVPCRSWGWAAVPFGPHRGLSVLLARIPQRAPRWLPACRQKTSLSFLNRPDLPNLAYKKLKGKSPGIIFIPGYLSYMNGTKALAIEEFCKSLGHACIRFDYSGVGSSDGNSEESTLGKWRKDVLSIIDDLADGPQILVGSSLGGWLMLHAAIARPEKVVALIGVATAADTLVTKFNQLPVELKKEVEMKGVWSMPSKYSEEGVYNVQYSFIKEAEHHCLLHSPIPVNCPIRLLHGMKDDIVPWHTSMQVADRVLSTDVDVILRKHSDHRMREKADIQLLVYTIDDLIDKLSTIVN
UniProt Q5T8D3: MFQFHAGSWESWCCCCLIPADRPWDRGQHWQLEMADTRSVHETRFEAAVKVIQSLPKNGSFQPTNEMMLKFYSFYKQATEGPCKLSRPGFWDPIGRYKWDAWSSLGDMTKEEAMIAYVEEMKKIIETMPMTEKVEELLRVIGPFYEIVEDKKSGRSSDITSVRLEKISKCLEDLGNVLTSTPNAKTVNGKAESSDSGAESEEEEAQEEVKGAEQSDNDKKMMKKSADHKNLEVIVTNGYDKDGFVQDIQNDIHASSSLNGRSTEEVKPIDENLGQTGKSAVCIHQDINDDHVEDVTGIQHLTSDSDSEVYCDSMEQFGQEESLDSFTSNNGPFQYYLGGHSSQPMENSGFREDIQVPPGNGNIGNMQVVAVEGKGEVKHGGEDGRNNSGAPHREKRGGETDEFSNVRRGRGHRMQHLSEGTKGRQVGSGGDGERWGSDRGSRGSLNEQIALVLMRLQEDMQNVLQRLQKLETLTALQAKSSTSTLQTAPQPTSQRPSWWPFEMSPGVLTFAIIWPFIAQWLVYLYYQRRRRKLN
UniProt Q86V21: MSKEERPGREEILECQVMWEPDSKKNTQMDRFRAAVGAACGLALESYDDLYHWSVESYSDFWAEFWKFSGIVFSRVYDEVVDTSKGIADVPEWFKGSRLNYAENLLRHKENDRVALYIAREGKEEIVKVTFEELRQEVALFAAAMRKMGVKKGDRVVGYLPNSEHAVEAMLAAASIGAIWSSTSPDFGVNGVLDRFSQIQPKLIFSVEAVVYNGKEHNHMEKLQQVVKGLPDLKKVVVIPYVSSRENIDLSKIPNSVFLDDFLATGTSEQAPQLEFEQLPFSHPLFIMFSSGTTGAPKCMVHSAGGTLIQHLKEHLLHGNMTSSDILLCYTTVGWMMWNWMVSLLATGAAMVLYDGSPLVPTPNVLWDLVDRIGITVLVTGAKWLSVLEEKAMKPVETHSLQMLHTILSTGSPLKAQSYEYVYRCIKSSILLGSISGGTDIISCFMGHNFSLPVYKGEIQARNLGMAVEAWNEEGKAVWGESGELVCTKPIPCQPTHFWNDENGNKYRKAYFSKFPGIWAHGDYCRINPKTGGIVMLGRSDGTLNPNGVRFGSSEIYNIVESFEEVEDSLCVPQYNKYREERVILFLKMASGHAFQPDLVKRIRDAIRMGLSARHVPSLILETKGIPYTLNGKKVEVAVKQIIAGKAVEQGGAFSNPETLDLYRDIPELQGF

Columns and labels:
Test in all cases: log2 fold change, soluble protein after heating vs DMSO (PISA); higher = thermal stabilisation; K562 lysate, 10 uM; active = over 0.2 and 3.5 SD of the protein, either way, in both replicates (recomputed)
[1] = compound: NCC(=O)Nc1ccc(-n2nc(C(F)(F)F)cc2-c2ccc3c(ccc4ccccc43)c2)cc1
Method in brief: (§1)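 Thermal stability, expressed as log-two fold change relative to solvent controls, is given from duplicates. Crude K562 extract in PBS pH 7.4 with 1 mM MgCl2, at 1 mg/mL protein, was treated with 10 μM compound for 30 min and heated in aliquots for 3 min across 48°C-58°C. After pooling, adjustment to 0.5% NP-40 at 4°C and centrifugation at 21,000xg for 90 min, supernatant protein was measured by TMTpro 16plex LC-MS/MS with channel sums equalised.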

vorinostat = compound: O=C(CCCCCCC(=O)Nc1ccccc1)NO [vorinostat]
Method in brief: as §1

silmitasertib = compound: O=C(O)c1ccc2c(c1)nc(Nc1cccc(Cl)c1)c1ccncc12 [silmitasertib]
Method in brief: as §1

[2] = compound: O=C1NC(=O)C(c2cnc3ccccn23)=C1c1cn2c3c(cc(F)cc13)CN(C(=O)N1CCCCC1)CC2
Method in brief: as §1

entospletinib = compound: c1cn2cc(-c3ccc4cn[nH]c4c3)nc(Nc3ccc(N4CCOCC4)cc3)c2n1 [entospletinib]
Method in brief: as §1

Measured: log2 fold change

ABL1 isoform 2 (UniProt P00519)
inactive: [1] -0.003 | silmitasertib -0.019 | [2] -0.042 | entospletinib -0.008
active: vorinostat -0.328

ABLIM1 (UniProt O14639)
inactive: [1] 0.024 | vorinostat 0.007 | silmitasertib 0.106 | [2] 0.093 | entospletinib 0.033

ABI1 isoform 9 (UniProt Q8IZP0)
inactive: [1] 0.046 | vorinostat 0.026 | silmitasertib -0.025 | [2] 0.03 | entospletinib 0.018

ABCF1 (UniProt Q8NE71)
inactive: [1] 0.004 | vorinostat -0.128 | silmitasertib 0.017 | [2] 0.013 | entospletinib 0.019

A0A096LPI6, A0A096LPI6
inactive: [1] -0.003 | vorinostat 0.089 | silmitasertib -0.003 | [2] 0.014 | entospletinib -0.025

AAK1 (UniProt Q2M2I8)
inactive: [1] -0.007 | vorinostat -0.259 | silmitasertib 0.039 | [2] 0.42 | entospletinib 0.202

AAK1, A0A096LP25
inactive: [1] -0.031 | vorinostat -0.217 | silmitasertib 0.075 | [2] 0.361 | entospletinib 0.241

AAAS (UniProt Q9NRG9)
inactive: [1] 0.017 | vorinostat -0.173 | silmitasertib 0.033 | [2] -0.021 | entospletinib -0.007

AAMP (UniProt Q13685)
inactive: [1] -0.008 | vorinostat 0.022 | silmitasertib -0.009 | [2] -0.013 | entospletinib 0.014

ABCC5 (UniProt O15440)
inactive: [1] 0.025 | vorinostat 0.042 | silmitasertib -0.023 | [2] -0.028 | entospletinib -0.036

ACACA isoform 4 (UniProt Q13085)
inactive: [1] -0.003 | silmitasertib 0.016 | [2] -0.003 | entospletinib 0.027
active: vorinostat -0.449

AAR2 (UniProt Q9Y312)
inactive: [1] 0.009 | vorinostat 0.001 | silmitasertib 0.009 | [2] 0.007 | entospletinib -0.015

ABCA3 (UniProt Q99758)
inactive: [1] -0.157 | vorinostat 0.087 | silmitasertib -0.062 | [2] 0 | entospletinib 0.28

ABCF3 (UniProt Q9NUQ8)
active: vorinostat -0.439
inactive: [1] 0.026 | silmitasertib 0.033 | [2] -0.004 | entospletinib -0.013

ABT1 (UniProt Q9ULW3)
inactive: [1] 0.109 | vorinostat -0.121 | silmitasertib 0.062 | [2] -0.056 | entospletinib -0.113

AASDHPPT (UniProt Q9NRN7)
inactive: [1] 0.02 | vorinostat 0.019 | silmitasertib 0.015 | [2] 0.012 | entospletinib 0.008

ACO1 (UniProt P21399)
inactive: [1] -0.009 | vorinostat 0.096 | silmitasertib 0.015 | [2] -0.021 | entospletinib -0.005

ABCB6 (UniProt Q9NP58)
inactive: [1] 0.005 | vorinostat 0.041 | silmitasertib -0.038 | [2] -0.004 | entospletinib 0.048

AATF (UniProt Q9NY61)
inactive: [1] -0.094 | vorinostat 0.054 | silmitasertib 0.061 | [2] -0.05 | entospletinib -0.009

ACO2 (UniProt Q99798)
inactive: [1] 0.036 | vorinostat 0.071 | silmitasertib -0.021 | [2] -0.003 | entospletinib 0.012

ABCB10 (UniProt Q9NRK6)
inactive: [1] -0.06 | vorinostat 0.059 | silmitasertib 0.012 | [2] -0.01 | entospletinib 0.025

ABHD17B (UniProt Q5VST6)
inactive: [1] 0.096 | vorinostat 0.219 | silmitasertib -0.021 | [2] 0.032 | entospletinib 0.2

ACBD6 (UniProt Q9BR61)
active: vorinostat -0.298
inactive: [1] -0.009 | silmitasertib 0.003 | [2] 0.028 | entospletinib -0.028

ACADVL isoform 3 (UniProt P49748)
inactive: [1] -0.005 | vorinostat 0.128 | silmitasertib -0.02 | [2] 0.018 | entospletinib -0.015

A0A0B4J2A0, A0A0B4J2A0
inactive: [1] 0.086 | vorinostat -0.01 | silmitasertib 0.001 | [2] 0.002 | entospletinib -0.014

ACADS (UniProt P16219)
inactive: [1] -0.005 | vorinostat 0.217 | silmitasertib -0.089 | [2] 0.017 | entospletinib -0.021

ACAP3 (UniProt Q96P50)
inactive: entospletinib 0.062

ABCA7 (UniProt Q8IZY2)
inactive: [2] 0.231

ABHD18 (UniProt Q0P651)
inactive: vorinostat -0.053 | silmitasertib -0.001 | entospletinib 0

ABCB8 (UniProt Q9NUT2)
inactive: [1] -0.01 | vorinostat -0.125 | silmitasertib -0.035 | [2] -0.015 | entospletinib -0.012

ACD (UniProt Q96AP0)
inactive: [2] -0.068

ABHD17A isoform 2 (UniProt Q96GS6)
active: vorinostat 0.363
inactive: [1] 0.001 | silmitasertib -0.059 | [2] -0.025 | entospletinib 0.043

ABRACL (UniProt Q9P1F3)
active: vorinostat -0.845
inactive: silmitasertib 0.111 | [2] 0.088

ACLY isoform 2 (UniProt P53396)
inactive: [1] 0.091 | [2] -0.061 | entospletinib -0.047

ACAP1 (UniProt Q15027)
inactive: [2] -0.122

ABHD13 (UniProt Q7L211)
inactive: [1] 0.023 | [2] 0.027 | entospletinib -0.12

ABHD10 (UniProt Q9NUJ1)
inactive: [1] 0.036 | vorinostat 0.091 | silmitasertib -0.028 | [2] -0.015 | entospletinib -0.046

ABCD3 (UniProt P28288)
inactive: [1] -0.019 | vorinostat -0.164 | silmitasertib 0.113 | [2] -0.08 | entospletinib 0.034

AARSD1 isoform 3 (UniProt Q9BTE6)
inactive: [1] -0.002 | vorinostat -0.189 | silmitasertib 0.052 | [2] 0.005 | entospletinib 0.013

ABRAXAS1 (UniProt Q6UWZ7)
inactive: [1] -0.037 | vorinostat -0.037 | silmitasertib 0.025 | [2] -0.031 | entospletinib -0.041

ABHD16A (UniProt O95870)
inactive: [1] 0.007 | silmitasertib -0.1 | [2] -0.056 | entospletinib -0.01
active: vorinostat 0.906

ABRAXAS2 (UniProt Q15018)
inactive: [1] 0.001 | vorinostat 0.089 | silmitasertib -0.011 | [2] 0.007 | entospletinib -0.017

ABCC3 isoform 4 (UniProt O15438)
inactive: [2] 0.043

AASDH (UniProt Q4L235)
inactive: [1] 0.114 | vorinostat -0.122 | silmitasertib -0.059 | entospletinib -0.102

ACBD5 (UniProt Q5T8D3)
inactive: vorinostat 0.152 | silmitasertib 0.004

AARSD1 (UniProt Q9BTE6)
inactive: entospletinib -0.048

ACAD8 (UniProt Q9UKU7)
inactive: [1] -0.012 | [2] 0.007

A2M (UniProt P01023)
inactive: [1] -0.011 | vorinostat 0.093 | silmitasertib -0.056 | [2] 0.063 | entospletinib -0.002

ABHD15 (UniProt Q6UXT9)
inactive: [1] 0.038 | vorinostat 0.086 | silmitasertib 0.01 | entospletinib -0.043

A2ML1 (UniProt A8K2U0)
inactive: vorinostat 0.048 | silmitasertib -0.044 | [2] 0.437

ABCD4 (UniProt O14678)
inactive: vorinostat 0.123 | silmitasertib 0.072

ACADM isoform 2 (UniProt P11310)
active: vorinostat 0.344
inactive: [1] -0.015 | silmitasertib -0.015 | [2] 0.023 | entospletinib 0.016

ACAD10 isoform 5 (UniProt Q6JQN1)
inactive: vorinostat -0.103 | silmitasertib 0.068 | [2] 0.067 | entospletinib -0.037

4 successive records out of the list so far, for reference:
A2ML1 (UniProt A8K2U0)
inactive: vorinostat 0.048 | silmitasertib -0.044 | [2] 0.437

ABCD4 (UniProt O14678)
inactive: vorinostat 0.123 | silmitasertib 0.072

ACADM isoform 2 (UniProt P11310)
active: vorinostat 0.344
inactive: [1] -0.015 | silmitasertib -0.015 | [2] 0.023 | entospletinib 0.016

ACAD10 isoform 5 (UniProt Q6JQN1)
inactive: vorinostat -0.103 | silmitasertib 0.068 | [2] 0.067 | entospletinib -0.037

Further entries.

ABI1 isoform 6 (UniProt Q8IZP0)
inactive: entospletinib -0.115

AACS (UniProt Q86V21)
inactive: [1] -0.106 | vorinostat -0.144 | silmitasertib 0.024 | [2] 0.007 | entospletinib -0.019

ABCA8 isoform 3 (UniProt O94911)
inactive: vorinostat 0.273 | silmitasertib -0.038 | [2] -0.062

ABCC10 (UniProt Q5T3U5)
inactive: vorinostat 0 | silmitasertib 0.044

ACBD7 (UniProt Q8N6N7)
inactive: vorinostat 0.08 | silmitasertib 0.06
